Experimental data: PubChem BioAssay AID602196 (INSERM, 2012)
Shown is one part, drawn at random, of about 23,000 reagents. In the full data, 455 (2%) were called active. 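Active includes both protection and sensitisation; some change values fall well beyond the stated -50 to +50 range.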 Reagent sequences are not shown. Not given: the amount of reagent.

Assay: 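Genes whose knock-down alters cisplatin killing of lung cancer cells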
Cells: human A549 lung cancer cells
Reagent: siRNA pair against human genes
Time to read-out: 48 h transfection before cisplatin; time from cisplatin to read-out not stated
Challenge: cisplatin at a dose killing half of control-siRNA cells; exact dose and duration not given
Read-out: 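Cisplatin cell death as a shift from the 50% death seen with control siRNA; siRNAs toxic or growth-blocking alone scored 0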
Direction: two-siRNA summed score (-2 to +2): higher = both siRNAs protect from cisplatin killing; -2 means both sensitise; mean protection from cisplatin (shift in death) and protection from cisplatin (shift in death), siRNA C and protection from cisplatin (shift in death), siRNA D: higher = protection from cisplatin killing
Rule for the call: 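Each siRNA scores 0 if harmful alone by LDH or WST-1, otherwise +1 if it reduces and -1 if it increases cisplatin killing; a gene is active when both siRNAs agree (sum +2 or -2)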
Calls: active = both siRNAs shift cisplatin killing the same way; inactive = no consistent shift, or siRNA harmful alone

target gene	PubChem SID	two-siRNA summed score (-2 to +2)	mean protection from cisplatin (shift in death) (%)	protection from cisplatin (shift in death), siRNA C (%)	protection from cisplatin (shift in death), siRNA D (%)	activity call
C3	SID131506959	0	-0.7	3.5	-4.9	inactive
LOC440763	SID131519654	1	6.8	13.6	0	inactive
TMPRSS4	SID131513828	0	7.1	9.3	4.8	inactive
OR9I1	SID131504827	0	-4.4	-11.1	2.3	inactive
LOC387686	SID131521587	1	14.1	18.1	10.1	inactive
EFCAB6	SID131502386	-1	-2.8	9	-14.6	inactive
LOC390426	SID131520896	1	11.5	18.5	4.4	inactive
SLC2A4RG	SID131509674	0	2.4	10	-5.3	inactive
SNTB2	SID131518098	0	16.5	21.6	11.4	inactive
CES2	SID131521858	1	15.2	25.8	4.5	inactive
DAW1	SID131520370	1	9.7	17.9	1.4	inactive
GNL3L	SID131513813	0	7.1	5.6	8.5	inactive
NQO1	SID131501369	-1	-10.2	-2.2	-18.1	inactive
LOC442218	SID131521278	1	12.9	13.1	12.6	inactive
NSRP1	SID131506447	0	-1.5	-1	-2	inactive
MLF2	SID131517663	0	14.3	-2.5	31.1	inactive
CT75	SID131522483	1	19.1	20.5	17.6	inactive
LOC402367	SID131519830	1	7.7	12.6	2.7	inactive
RAPSN	SID131507495	0	-0.1	6.1	-6.2	inactive
COPB1	SID131514902	0	8.4	17.1	-0.3	inactive
LOC441922	SID131522056	1	16	10.1	22	inactive
SESN3	SID131520869	1	11.4	26.8	-4.1	inactive
NFAM1	SID131505052	0	-3.9	-7.3	-0.5	inactive

Records listed so far whose gene name begins with C or c (4):
target gene	PubChem SID	two-siRNA summed score (-2 to +2)	mean protection from cisplatin (shift in death) (%)	protection from cisplatin (shift in death), siRNA C (%)	protection from cisplatin (shift in death), siRNA D (%)	activity call
C3	SID131506959	0	-0.7	3.5	-4.9	inactive
CES2	SID131521858	1	15.2	25.8	4.5	inactive
CT75	SID131522483	1	19.1	20.5	17.6	inactive
COPB1	SID131514902	0	8.4	17.1	-0.3	inactive
